# Not every detail of the peptide structures is certain; ends, links or a residue may be inferred. Where a SMILES comes first, the peptide text is derived from it. Bridges are numbered along the chain shown (N, C = ends). [ ]: non-standard residue; d: D form. Gla = N[C@@H](CC(C(=O)O)C(=O)O)C(=O)O; Hyp = O=C(O)[C@@H]1C[C@@H](O)CN1
# System: slow voltage gated currents (pacemaker currents)
# Type: cell-based, Lymnaea stagnalis
structure (smiles),measurement,value
"CC(C)C[C@H](NC(=O)[C@H](CC(C(=O)O)C(=O)O)NC(=O)[C@@H]1CSSC[C@@H]2NC(=O)[C@H](CC(C(=O)O)C(=O)O)NC(=O)[C@H](CO)NC(=O)[C@H](CC(N)=O)NC(=O)[C@H](C(C)C)NC(=O)[C@H]([C@@H](C)O)NC(=O)[C@@H]3CSSC[C@H](NC(=O)[C@H](CO)NC(=O)[C@H](CC(N)=O)NC(=O)[C@H](CO)NC(=O)[C@H](CSSC[C@H](NC(=O)[C@@H](N)CC(=O)O)C(=O)N[C@@H]([C@@H](C)O)C(=O)N[C@@H](CO)C(=O)N[C@@H](Cc4c[nH]c5ccccc45)C(=O)N[C@@H](Cc4ccccc4)C(=O)NCC(=O)N[C@@H](CCCNC(=N)N)C(=O)N3)NC2=O)C(=O)N[C@@H](CC(=O)O)C(=O)N[C@@H](CCC(N)=O)C(=O)N[C@@H]([C@@H](C)O)C(=O)N[C@@H](Cc2ccc(O)cc2)C(=O)N1)C(=O)N[C@@H](Cc1ccc(O)cc1)C(=O)N[C@@H](C)C(=O)N[C@@H](Cc1ccccc1)C(=O)N1C[C@H](O)C[C@H]1C(=O)N[C@@H](CO)C(=O)O [PnVIIA, Asp-Cys-Thr-Ser-Xaa1-Phe-Gly-Arg-Cys-Thr-Val-Asn-Ser-Xaa2-Cys-Cys-Ser-Asn-Ser-Cys-Asp-Gln-Thr-Tyr-Cys-Xaa2-Leu-Tyr-Ala-Phe-Xaa3-Ser] (H-DCTSWFGRCTVNS[Gla]CCSNSCDQTYC[Gla]LYAF[Hyp]S-OH; disulfide 2-16, 9-20, 15-25)",noninactivating outward current at potentials above 0 mV,increase
